Test results taken from PMC7862700.
This is a selection; strong and weak results do not stand in their true shares. At the low end of the ranking the order means little.

Chains of the proteins cited; added tags and fusions are not shown. Lines headed by an entry give the natural chain unless they say otherwise; changes in a name come on top.
UniProt O43186: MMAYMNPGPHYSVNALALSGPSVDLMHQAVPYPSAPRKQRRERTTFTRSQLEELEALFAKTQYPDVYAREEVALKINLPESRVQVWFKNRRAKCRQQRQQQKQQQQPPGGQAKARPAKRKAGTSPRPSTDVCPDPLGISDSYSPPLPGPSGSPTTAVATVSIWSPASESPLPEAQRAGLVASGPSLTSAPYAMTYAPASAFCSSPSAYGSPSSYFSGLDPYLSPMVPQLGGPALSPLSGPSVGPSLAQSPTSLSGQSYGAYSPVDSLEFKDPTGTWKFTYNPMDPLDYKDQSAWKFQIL

biological target: CRX (UniProt O43186); assay: DAPPL (digital affinity profiling via proximity ligation, sequencing); conditions: 10 mM Tris-HCl pH 7.5, 50 mM NaCl, 1 mM DTT, 4% glycerol, room temperature, 30 min; GST-TFs on glutathione beads, 16-mer random dsDNA library, 0.1% …; high values mean tight binding; double strand, one strand shown; scale: fold enrichment (6-mer frequency, TF over GST control)

| Sequence | binding signal |
| --- | --- |
| CGCCGC | 0.902 |
| TGATCG | 1.21 |
| ACACCC | 0.908 |
| AACCCC | 1.21 |
| TTCATG | 1.16 |
| AACTGA | 0.987 |
| ACATCG | 0.837 |
| TTCGAG | 1.96 |
| CACATG | 0.855 |
| GCCCGC | 0.849 |
| GTCCGG | 0.423 |
| TGGCCC | 0.85 |
| AATGCG | 1.36 |
| TGTTTT | 1.23 |
| ACGCCT | 1.08 |
| TTTCCC | 1.43 |
| TGTCCC | 0.984 |
| AAGGCT | 1.43 |
| GAAACT | 0.984 |
| CACCAC | 0.837 |

| Sequence | binding signal |
| --- | --- |
| CAGGAA | 0.724 |
| TATTTA | 2.47 |
| CACGCG | 0.979 |
| GCCTGC | 0.849 |
| TTCGCA | 1.28 |
| AACGGC | 1.11 |
| AACCGG | 0.695 |
| TCACTG | 1.09 |
| ACAATG | 0.808 |
| GTCCTG | 0.822 |
| TATCCA | 1.75 |
| CGGATT | 2.48 |
| CACCCC | 0.93 |
| TGCGCC | 0.884 |
| AATAGT | 1.19 |
| TAAGTT | 1.94 |
| CAAACC | 0.899 |
| TTGTAA | 1.62 |
| GCTGTT | 0.947 |

An excerpt of the results above, as a working copy:

| Sequence | binding signal |
| --- | --- |
| TAAGTT | 1.94 |
| CAAACC | 0.899 |
